Experimental findings from patent publication US12491217B2, “Compositions and methods for promoting healthy neural development in an unborn baby” (The Regents of the University of California, priority 2019, dated 2025) are described below.

A short description of the data set: Metabolomics of fetal brain at E14.5. In kind it is in vivo, C57Bl/6J mice. The conditions noted are these: E14.5 fetal brain metabolite level; for fold of change ABX/SPF: ANOVA contrast ABX vs SPF; for fold of change GF/ABX: ANOVA contrast GF vs ABX; for fold of change GF/SPF: ANOVA contrast GF vs SPF; for fold of change GF/Sp: ANOVA contrast GF vs Sp; for fold of change Sp/ABX: ANOVA contrast Sp vs ABX; for fold of change Sp/SPF: ANOVA contrast Sp vs SPF.

Turning to `CCCCCCCC/C=C\CCCCCCCC(=O)OCC(O)COP(=O)(O)OCC(N)C(=O)O` (stereo not drawn) [compound 2194], the “fold of change ABX/SPF” value is listed as 0.76, the “fold of change GF/ABX” value is 0.78, the “fold of change GF/SPF” value is given as 0.59 and the “fold of change GF/Sp” value came out at 0.90. In addition, the “fold of change Sp/ABX” value came to 0.87 and the “fold of change Sp/SPF” value is 0.66.
For `CCCCCCCCCCCCCCCC(=O)OCC(O)COP(=O)(O)OCC(O)CO` (stereo not drawn) [compound 2199], the “fold of change ABX/SPF” value is on record as 0.82, the “fold of change GF/ABX” value was 0.45, the “fold of change GF/SPF” value is 0.37 and the “fold of change GF/Sp” value is 0.85. In addition, the “fold of change Sp/ABX” value is listed as 0.53 and the “fold of change Sp/SPF” value turned out to be 0.43.
Regarding `CCCCCCCC/C=C\CCCCCCCC(=O)OCC(O)COP(=O)(O)OCC(O)CO` (stereo not drawn) [compound 2203], the “fold of change ABX/SPF” value came to 0.98, the “fold of change GF/ABX” value is 0.65, the “fold of change GF/SPF” value came to 0.64 and the “fold of change GF/Sp” value was found to be 1.07. Moreover, the “fold of change Sp/ABX” value was found to be 0.61 and the “fold of change Sp/SPF” value was 0.60.
For `CCCCCCCCCCCCCCCC(=O)OCC(O)COP(=O)(O)OC1C(O)C(O)C(O)C(O)C1O` (stereo not drawn) [compound 2206], the “fold of change ABX/SPF” value was determined as 0.59, the “fold of change GF/ABX” value is 0.87, the “fold of change GF/SPF” value is reported as 0.52 and the “fold of change GF/Sp” value is reported as 0.84. The “fold of change Sp/ABX” value turned out to be 1.04 and the “fold of change Sp/SPF” value stood at 0.61.
For the compound `CCCCCCCCCCCCCCCCCC(=O)OCC(O)COP(=O)(O)OC1C(O)C(O)C(O)C(O)C1O` (stereo not drawn) [compound 2209], the “fold of change ABX/SPF” value is recorded as 0.63, the “fold of change GF/ABX” value is listed as 0.85, the “fold of change GF/SPF” value stood at 0.53 and the “fold of change GF/Sp” value amounted to 0.88. Moreover, the “fold of change Sp/ABX” value came to 0.96 and the “fold of change Sp/SPF” value was determined as 0.60.
On to `CCCCCCCC/C=C\CCCCCCCC(=O)OCC(O)COP(=O)(O)OC1C(O)C(O)C(O)C(O)C1O` (stereo not drawn) [compound 2211], for which the “fold of change ABX/SPF” value is recorded as 0.61, the “fold of change GF/ABX” value is listed as 1.02, the “fold of change GF/SPF” value came to 0.62 and the “fold of change GF/Sp” value turned out to be 0.84. The “fold of change Sp/ABX” value is listed as 1.22 and the “fold of change Sp/SPF” value is recorded as 0.74.
As for `CCCCC/C=C\C/C=C\C/C=C\C/C=C\CCCC(=O)OCC(O)COP(=O)(O)OC1C(O)C(O)C(O)C(O)C1O` (stereo not drawn) [compound 2217], the “fold of change ABX/SPF” value turned out to be 0.91, the “fold of change GF/ABX” value is recorded as 0.56, the “fold of change GF/SPF” value stood at 0.51 and the “fold of change GF/Sp” value is on record as 0.92. Besides, the “fold of change Sp/ABX” value is 0.61 and the “fold of change Sp/SPF” value is 0.56.
With `CCCCCCCC/C=C\CCCCCCCC(=O)OC(CO/C=C\CCCCCCCCCCCCCC)COP(=O)(O)OCCN` (stereo not drawn) [compound 2310], the “fold of change ABX/SPF” value is given as 1.04, the “fold of change GF/ABX” value worked out at 0.86, the “fold of change GF/SPF” value came to 0.90 and the “fold of change GF/Sp” value came out at 1.02. Besides, the “fold of change Sp/ABX” value is recorded as 0.85 and the “fold of change Sp/SPF” value turned out to be 0.88.
Consider `CCCCC/C=C\C/C=C\CCCCCCCC(=O)OC(CO/C=C\CCCCCCCCCCCCCC)COP(=O)(O)OCCN` (stereo not drawn) [compound 2311], for which the “fold of change ABX/SPF” value came out at 1.23, the “fold of change GF/ABX” value worked out at 0.83, the “fold of change GF/SPF” value was 1.01 and the “fold of change GF/Sp” value stood at 1.20. The “fold of change Sp/ABX” value is listed as 0.69 and the “fold of change Sp/SPF” value is listed as 0.84.
On to `CCCCCCCCCCCCCC/C=C\OC[C@H](COP(=O)([O-])OCC[N+](C)(C)C)OC(=O)CCCCCCCCCCCCCCC` [compound 2312], for which the “fold of change ABX/SPF” value is 0.73, the “fold of change GF/ABX” value is given as 0.91, the “fold of change GF/SPF” value is 0.67 and the “fold of change GF/Sp” value was 0.87. For the same compound, the “fold of change Sp/ABX” value is on record as 1.05 and the “fold of change Sp/SPF” value worked out at 0.77.
Consider `CCCCCCC=CCCCCCCCC(=O)OC(COC=CCCCCCCCCCCCCCC)COP(=O)([O-])OCC[N+](C)(C)C` (stereo not drawn) [compound 2313], for which the “fold of change ABX/SPF” value amounted to 0.81, the “fold of change GF/ABX” value is 0.93, the “fold of change GF/SPF” value amounted to 0.75 and the “fold of change GF/Sp” value was 0.86. Moreover, the “fold of change Sp/ABX” value is 1.08 and the “fold of change Sp/SPF” value was found to be 0.87.
On to `CCCCCC=CCC=CCC=CCC=CCCCC(=O)OC(COC=CCCCCCCCCCCCCCC)COP(=O)(O)OCCN` (stereo not drawn) [compound 2314], for which the “fold of change ABX/SPF” value is 0.99, the “fold of change GF/ABX” value amounted to 0.89, the “fold of change GF/SPF” value worked out at 0.88 and the “fold of change GF/Sp” value came to 1.07. The “fold of change Sp/ABX” value came out at 0.83 and the “fold of change Sp/SPF” value was found to be 0.82.
Turning to `CCCCCCCC/C=C\CCCCCCCC(=O)OC(CO/C=C\CCCCCCCCCCCCCCCC)COP(=O)(O)OCCN` (stereo not drawn) [compound 2318], the “fold of change ABX/SPF” value was 1.01, the “fold of change GF/ABX” value came to 0.81, the “fold of change GF/SPF” value was 0.81 and the “fold of change GF/Sp” value worked out at 0.97. For the same compound, the “fold of change Sp/ABX” value is 0.84 and the “fold of change Sp/SPF” value is given as 0.84.
For the compound `CCCCC/C=C\C/C=C\C/C=C\C/C=C\CCCC(=O)OC(CO/C=C\CCCCCCCCCCCCCCCC)COP(=O)(O)OCCN` (stereo not drawn) [compound 2327], the “fold of change ABX/SPF” value is given as 0.92, the “fold of change GF/ABX” value is 0.89, the “fold of change GF/SPF” value worked out at 0.82 and the “fold of change GF/Sp” value is given as 1.03. Moreover, the “fold of change Sp/ABX” value worked out at 0.87 and the “fold of change Sp/SPF” value was 0.80.
As for `CCCCCCCCCCCCCCC=COCC(O)COP(=O)(O)OCCN` (stereo not drawn) [compound 2343], the “fold of change ABX/SPF” value came out at 0.73, the “fold of change GF/ABX” value was 0.90, the “fold of change GF/SPF” value stood at 0.65 and the “fold of change GF/Sp” value was 0.85. Further, the “fold of change Sp/ABX” value is listed as 1.05 and the “fold of change Sp/SPF” value is 0.77.
For `CCCCCCCCC=CCCCCCCC=COCC(O)COP(=O)(O)OCCN` (stereo not drawn) [compound 2345], the “fold of change ABX/SPF” value is reported as 0.91, the “fold of change GF/ABX” value is given as 0.77, the “fold of change GF/SPF” value is 0.70 and the “fold of change GF/Sp” value was found to be 0.88. For the same compound, the “fold of change Sp/ABX” value is recorded as 0.87 and the “fold of change Sp/SPF” value is 0.79.
Regarding `CCCCCCCCCCCCCCCC/C=C\OCC(O)COP(=O)(O)OCCN` (stereo not drawn) [compound 2347], the “fold of change ABX/SPF” value is listed as 0.75, the “fold of change GF/ABX” value is recorded as 0.84, the “fold of change GF/SPF” value came out at 0.63 and the “fold of change GF/Sp” value amounted to 0.83. Besides, the “fold of change Sp/ABX” value came out at 1.01 and the “fold of change Sp/SPF” value was 0.76.
On to `CCCCCCCC/C=C\CCCCCC/C=C\OCC(COP(=O)(O)OCCN)OC(=O)CCCCCCC/C=C\CCCCCCCC` (stereo not drawn) [compound 2348], for which the “fold of change ABX/SPF” value came to 1.16, the “fold of change GF/ABX” value is 0.84, the “fold of change GF/SPF” value is reported as 0.97 and the “fold of change GF/Sp” value is recorded as 1.09. The “fold of change Sp/ABX” value was found to be 0.77 and the “fold of change Sp/SPF” value turned out to be 0.89.
`O=P(O)(O)OCC(O)CO` (stereo not drawn) [compound 2351]: the “fold of change ABX/SPF” value is 0.79, the “fold of change GF/ABX” value is reported as 0.86, the “fold of change GF/SPF” value was determined as 0.68 and the “fold of change GF/Sp” value is given as 1.06. The “fold of change Sp/ABX” value was determined as 0.81 and the “fold of change Sp/SPF” value worked out at 0.64.
For the compound `O=P(O)(OCC(O)CO)OCC(O)CO` (stereo not drawn) [compound 2356], the “fold of change ABX/SPF” value is 0.66, the “fold of change GF/ABX” value is given as 1.17, the “fold of change GF/SPF” value was found to be 0.77 and the “fold of change GF/Sp” value worked out at 1.02. Also, the “fold of change Sp/ABX” value came to 1.14 and the “fold of change Sp/SPF” value was 0.76.
Take `CCCCCCCCCCCCCC(=O)OCC(O)CO` (stereo not drawn) [compound 2357]: the “fold of change ABX/SPF” value amounted to 0.91, the “fold of change GF/ABX” value turned out to be 0.88, the “fold of change GF/SPF” value is listed as 0.80 and the “fold of change GF/Sp” value was 1.12. The “fold of change Sp/ABX” value was found to be 0.78 and the “fold of change Sp/SPF” value is 0.72.
With `CCCCCCCCCCCCCCCC(=O)OCC(O)CO` (stereo not drawn) [compound 2360], the “fold of change ABX/SPF” value was 0.94, the “fold of change GF/ABX” value worked out at 0.74, the “fold of change GF/SPF” value is on record as 0.69 and the “fold of change GF/Sp” value is on record as 0.97. For the same compound, the “fold of change Sp/ABX” value was 0.76 and the “fold of change Sp/SPF” value is on record as 0.71.
Consider `CCCCCC/C=C\CCCCCCCC(=O)OCC(O)CO` (stereo not drawn) [compound 2361], for which the “fold of change ABX/SPF” value was found to be 1.00, the “fold of change GF/ABX” value was found to be 0.75, the “fold of change GF/SPF” value is on record as 0.75 and the “fold of change GF/Sp” value came out at 1.24. For the same compound, the “fold of change Sp/ABX” value amounted to 0.61 and the “fold of change Sp/SPF” value was 0.61.
Turning to `CCCCCCCC/C=C\CCCCCCCC(=O)OCC(O)CO` (stereo not drawn) [compound 2364], the “fold of change ABX/SPF” value stood at 0.95, the “fold of change GF/ABX” value is reported as 0.80, the “fold of change GF/SPF” value is reported as 0.76 and the “fold of change GF/Sp” value was 1.03. In addition, the “fold of change Sp/ABX” value is 0.77 and the “fold of change Sp/SPF” value is 0.74.
As for `CCCCC/C=C\C/C=C\C/C=C\C/C=C\CCCC(=O)OCC(O)CO` (stereo not drawn) [compound 2371], the “fold of change ABX/SPF” value amounted to 1.02, the “fold of change GF/ABX” value amounted to 0.73, the “fold of change GF/SPF” value is reported as 0.74 and the “fold of change GF/Sp” value turned out to be 1.49. In addition, the “fold of change Sp/ABX” value is recorded as 0.49 and the “fold of change Sp/SPF” value was found to be 0.50.
